# Assay results: PubChem BioAssay (EPA / NIEHS)
# Protein sequences, listed by entry. Tags and fused reporters are not part of them. Lines headed by an entry give the natural chain unless they say otherwise; changes in a name come on top.
# UniProt P19793: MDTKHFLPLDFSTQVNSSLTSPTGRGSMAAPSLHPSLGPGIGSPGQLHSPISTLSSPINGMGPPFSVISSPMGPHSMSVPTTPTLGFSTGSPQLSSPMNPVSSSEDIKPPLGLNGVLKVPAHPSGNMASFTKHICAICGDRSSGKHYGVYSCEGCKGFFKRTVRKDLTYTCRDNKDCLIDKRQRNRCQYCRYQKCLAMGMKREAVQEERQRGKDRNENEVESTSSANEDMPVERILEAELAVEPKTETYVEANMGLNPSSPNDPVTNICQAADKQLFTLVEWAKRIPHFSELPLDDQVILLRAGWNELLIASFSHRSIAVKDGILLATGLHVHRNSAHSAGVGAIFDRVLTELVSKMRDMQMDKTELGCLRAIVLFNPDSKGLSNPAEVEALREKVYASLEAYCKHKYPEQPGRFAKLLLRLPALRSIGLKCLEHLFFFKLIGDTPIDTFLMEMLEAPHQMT
# UniProt P37231: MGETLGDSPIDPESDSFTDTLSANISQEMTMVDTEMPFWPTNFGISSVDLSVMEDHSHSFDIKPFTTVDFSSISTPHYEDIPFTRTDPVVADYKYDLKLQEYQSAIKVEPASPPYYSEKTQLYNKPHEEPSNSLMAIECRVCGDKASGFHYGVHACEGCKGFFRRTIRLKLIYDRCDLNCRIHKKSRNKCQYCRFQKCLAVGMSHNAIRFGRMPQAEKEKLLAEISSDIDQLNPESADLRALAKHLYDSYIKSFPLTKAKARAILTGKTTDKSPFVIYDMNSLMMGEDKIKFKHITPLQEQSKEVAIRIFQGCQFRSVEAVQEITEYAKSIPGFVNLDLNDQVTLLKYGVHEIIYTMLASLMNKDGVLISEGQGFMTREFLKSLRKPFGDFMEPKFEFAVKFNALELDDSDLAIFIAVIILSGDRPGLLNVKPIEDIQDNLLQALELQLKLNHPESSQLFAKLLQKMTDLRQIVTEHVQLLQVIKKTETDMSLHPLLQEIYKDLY
# UniProt P04637, whole entry, looked up: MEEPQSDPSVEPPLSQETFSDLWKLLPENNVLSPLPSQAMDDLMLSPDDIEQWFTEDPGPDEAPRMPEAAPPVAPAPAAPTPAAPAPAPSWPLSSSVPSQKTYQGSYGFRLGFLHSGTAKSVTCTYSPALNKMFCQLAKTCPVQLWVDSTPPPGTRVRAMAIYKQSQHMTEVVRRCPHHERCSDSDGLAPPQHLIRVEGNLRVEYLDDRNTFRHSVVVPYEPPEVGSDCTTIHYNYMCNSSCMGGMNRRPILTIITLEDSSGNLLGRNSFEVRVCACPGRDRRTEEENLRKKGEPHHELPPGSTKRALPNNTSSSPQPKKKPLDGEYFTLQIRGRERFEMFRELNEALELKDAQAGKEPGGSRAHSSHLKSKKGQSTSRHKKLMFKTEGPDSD
# “And” between values parts separate entries of the source, which are not always exact repeats. Equal entries are not always repeated. The shares of active, inactive and inconclusive entries below differ from those in the screen. For some assays here: Potencies of inconclusive entries are doubtful fits and often do not repeat. The source made the active and inactive calls. Rule for the calls: active = hit-call score of the fitted dose curve at least 0.9, where 1 is the maximum; inconclusive = response in the unintended direction; inactive = score below 0.9.
# Assays:
# [1] = target: Retinoic acid receptor RXR-alpha (Homo sapiens) (UniProt P19793); assay: OT_NURR1_NURR1RXRa_0480: Odyssey Thera (OT) 8-hour HEK293T Protein Complementation Assay for Nurr1/retinoid X receptor (RXR) (AID 2283385)
# Outline: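 HEK293T cells expressing Nurr1 and RXRα fused to reporter fragments (protein-fragment complementation); fluorescence measured 8 h after dosing. Gain of signal fitted relative to DMSO.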
# [2] = target: Retinoic acid receptor RXR-alpha (Homo sapiens) (UniProt P19793); assay: OT_NURR1_NURR1RXRa_1440: Odyssey Thera (OT) 24-hour HEK293T Protein Complementation Assay for Nurr1/retinoid X receptor (RXR) (AID 2283386)
# Outline: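 HEK293T protein-fragment complementation of Nurr1 and RXRα fused to reporter fragments; compounds 24 h. Fluorescence gain from reconstituted reporter fitted versus DMSO.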
# [3] = target: Peroxisome proliferator-activated receptor gamma (Homo sapiens) (UniProt P37231); assay: OT_PPARg_PPARgSRC1_0480: Odyssey Thera (OT) 8-hour Protein-Complementation Assay for Peroxisome Proliferator-activated Receptor Gamma / SRC-1 Co-activator (AID 2283387);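 note: nuclear to cytoplasmic split Venus YFP fluorescence ratio reporting PPARg SRC-1 interaction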
# Outline: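 Read-out: 488 nm N/C fluorescence ratio from complemented Venus YFP fragments, ≥350 cells per image, gain-of-signal fitted against DMSO baseline. Fusions of PPARg/SRC-1 with IFP1/IFP2 expressed transiently in HEK293T; compounds applied 8 h.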
# [4] = TOX21_p53_BLA_p2_viability: Viability Assessment in the Tox21 HCT-116 p53 Agonism Beta-lactamase Assay, Phase 2 (AID 2283591);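 note: compound exposure lasted 16 h at 37 °C; actives lower the ATP signal meaning cytotoxicity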
# Outline: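 HCT-116 p53-bla cells (4000/well) rested 5 h at 37C, then received compounds in DMSO (217-fold dilution) for 16 h at 37C, 5% CO2. After the CCF4 read, CellTiter-Glo was added; ATP luminescence was read after 30 min at room temperature.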
# [5] = target: Cellular tumor antigen p53 (Homo sapiens) (UniProt P04637); assay: TOX21_p53_BLA_p2_ratio: Tox21 HCT-116 p53 Agonism Beta-lactamase Assay, Ratio, Phase 2 (AID 2283592)
# Outline: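 Human colon HCT116 cells with an inducible p53 beta-lactamase reporter are exposed to test chemicals for 16 h at 37C. Reporter induction is read as the 460/530 nm emission ratio after CCF4-AM loading, normalized to DMSO.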
# [6] = TOX21_p53_BLA_p3_viability: Viability Assessment in the Tox21 HCT-116 p53 Agonism Beta-lactamase Assay, Phase 3 (AID 2283593);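 note: cells exposed to compound for 16 h before reading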
# Outline: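 HCT-116 cells (4000/well) rested 5 h at 37C, then got DMSO compounds by pin tool (217-fold dilution) for 16 h at 37C, 5% CO2. After the bla read, CellTiter-Glo was added and luminescence read at 30 min, room temperature.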
# [7] = target: Cellular tumor antigen p53 (Homo sapiens) (UniProt P04637); assay: TOX21_p53_BLA_p3_ratio: Tox21 HCT-116 p53 Agonism Beta-lactamase Assay, Ratio, Phase 3 (AID 2283596)
# Outline: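 HCT116 p53-bla cells (4000/well) given compound in DMSO (217-fold dilution) after 5 h, incubated 16 h at 37C. CCF4-AM substrate 2 h at room temperature; 460/530 nm emission ratio, gain fitted against DMSO.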
# [8] = ATG_XTT_Cytotoxicity: Cytotoxicity Assessment in the Attagene TRANS-FACTORIAL HepG2 Assay (AID 2283584);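 note: XTT signal for cell number as viability in transfected HepG2 cells; cells exposed to compound for 24 h before reading; active means loss of viability signal versus DMSO baseline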
# Outline: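 24 h chemical exposure of reporter-transfected HepG2; XTT signal loss vs DMSO indicates cytotoxicity.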
compound,measurement,setting,value
CC(=O)c1ccc2c(c1)[C@H](NC(=O)c1ccc(F)cc1)[C@@H](O)C(C)(C)O2,AC50,[1],inconclusive: 4.33 µM and inconclusive: 47.5 µM
same,AC50,[2],inconclusive: 2.91 µM and inconclusive: 47.5 µM
OC[C@H]1O[C@@](CO)(O[C@H]2O[C@H](CO)[C@@H](O)[C@H](O)[C@H]2O)[C@@H](O)[C@@H]1O,AC50,[1],inconclusive: 4.39 µM
same,AC50,[2],inconclusive: 24.8 µM
CCCCCCCC/C=C\CCCCCCCC(=O)OCC(O)CO (stereo not given),AC50,[1],active: 71.1 µM
same,AC50,[2],active: 90.1 µM
CCc1cc(C(C)(C)C)c(O)c(C(C)(C)C)c1,AC50,[1],active: 83.8 µM
same,AC50,[2],active: 86.2 µM
CC(=O)N(C)C,AC50,[1],inconclusive: 11.2 µM
same,AC50,[2],inconclusive: 50 µM
CCOC(=O)c1ccc(C2CCC(NC[C@H](O)COc3ccc(O)c(NS(C)(=O)=O)c3)CC2)cc1 (stereo not given in full),AC50,[1],inconclusive: 83.6 µM and inconclusive: 84.1 µM
same,AC50,[2],active: 10.4 µM and inconclusive: 81.1 µM
same,AC50,[3],inconclusive: 27.6 µM
same,AC50,[4],active: 70.1 µM
same,AC50,[5],active: 80.4 µM
same,outcome,[6],inactive
CNCc1ccc(NC(=O)c2c[nH]c3c2C(=O)CCC3)cc1,outcome,[1],inactive
same,AC50,[2],inconclusive: 23.3 µM
same,outcome,[2],inactive
same,AC50,[4],inconclusive: 46.1 µM
same,AC50,[7],inconclusive: 46.1 µM
Cc1ccc(N(C)C)cc1,AC50,[1],inconclusive: 50 µM
same,outcome,[1],inactive
same,AC50,[8],inconclusive: 0.532 µM
same,AC50,[4],inconclusive: 83.3 µM
same,outcome,[4],inactive
same,AC50,[6],inconclusive: 45.9 µM
CC(=O)Nc1ccc(O)cc1,AC50,[1],inconclusive: 50 µM
same,AC50,[2],inconclusive: 50 µM
CC(C)CCCCCCCCCCCCCCC(=O)O,AC50,[1],inconclusive: 50 µM
same,AC50,[2],inconclusive: 11.3 µM
same,outcome,[3],inactive
same,AC50,[4],inconclusive: 46.1 µM
same,outcome,[7],inactive
CN(C)c1ccc(N=NS(=O)(=O)O)cc1,AC50,[1],inconclusive: 20.4 µM
same,AC50,[2],inconclusive: 10.7 µM and inconclusive: 16 µM
CCc1ccc(CCOc2ccc(CC3SC(=O)NC3=O)cc2)nc1 (stereo not given),AC50,[1],active: 53.6 µM and active: 57.4 µM
same,AC50,[2],active: 36.2 µM and active: 41.7 µM
CCCCCCCCC=CCCCCCCCC1=NCCN1CCO,AC50,[1],inconclusive: 89.3 µM
same,AC50,[2],inconclusive: 22.9 µM
same,outcome,[3],inactive
same,AC50,[8],active: 16.1 µM
same,AC50,[4],active: 46.1 µM
same,AC50,[6],active: 77.4 µM
same,AC50,[7],active: 87.1 µM
CC(=O)OC(C)c1ccccc1 (stereo not given),AC50,[1],inconclusive: 50 µM
same,outcome,[2],inactive
same,outcome,[4],inactive
same,outcome,[5],inactive
same,AC50,[6],inconclusive: 2.78 µM

# Part of the list above, tab-delimited.
compound	measurement	setting	value
CC(=O)c1ccc2c(c1)[C@H](NC(=O)c1ccc(F)cc1)[C@@H](O)C(C)(C)O2	AC50	[1]	inconclusive: 4.33 µM and inconclusive: 47.5 µM
same	AC50	[2]	inconclusive: 2.91 µM and inconclusive: 47.5 µM
